Values of other authors, collected in EP4847622A1, “METHOD FOR PRODUCING VIRAL VECTOR” (dated 2026).
The match of structure and compound is tentative.

Tested on: HEK293 cells
Details: rAAV produced using HEK293 cells; cited from earlier work

CN(C)c1ccc(C(=O)NCCCCCCC(=O)NO)cc1
titer of the rAAV8 genome: improved
